{"source": "patent US20110301209A1", "about": "“METHODS AND COMPOSITIONS FOR THE TREATMENT OF CANCER, TUMORS, AND TUMOR-RELATED DISORDERS” (TRAGARA PHARMACEUTICALS, INC., priority 2007, published 2011)", "origin": "cited, not measured here", "conditions": "cited from earlier work", "data": [{"smiles": "CC(=O)O[C@H]1C(=O)[C@@]2(C)[C@H]([C@H](OC(=O)c3ccccc3)[C@]3(O)C[C@H](OC(=O)[C@H](O)[C@@H](NC(=O)c4ccccc4)c4ccccc4)C(C)=C1C3(C)C)[C@]1(OC(C)=O)CO[C@@H]1C[C@@H]2O", "note": "[Paclitaxel]", "values": [{"measurement": "Solubility in water", "value": "highly insoluble"}]}]}
